{"sequences": {"note": "Amino acid sequences for entries named in this document (tags omitted).", "UniProt Q96A61": "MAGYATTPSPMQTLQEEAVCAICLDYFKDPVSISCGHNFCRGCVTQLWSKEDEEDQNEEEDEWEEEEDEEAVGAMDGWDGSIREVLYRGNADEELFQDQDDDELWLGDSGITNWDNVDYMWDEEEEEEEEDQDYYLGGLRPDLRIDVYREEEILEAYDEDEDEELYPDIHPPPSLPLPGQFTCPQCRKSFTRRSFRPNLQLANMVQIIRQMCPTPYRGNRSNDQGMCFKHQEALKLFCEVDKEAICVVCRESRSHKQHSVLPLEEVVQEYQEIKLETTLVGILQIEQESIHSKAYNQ", "UniProt Q9P0J7": "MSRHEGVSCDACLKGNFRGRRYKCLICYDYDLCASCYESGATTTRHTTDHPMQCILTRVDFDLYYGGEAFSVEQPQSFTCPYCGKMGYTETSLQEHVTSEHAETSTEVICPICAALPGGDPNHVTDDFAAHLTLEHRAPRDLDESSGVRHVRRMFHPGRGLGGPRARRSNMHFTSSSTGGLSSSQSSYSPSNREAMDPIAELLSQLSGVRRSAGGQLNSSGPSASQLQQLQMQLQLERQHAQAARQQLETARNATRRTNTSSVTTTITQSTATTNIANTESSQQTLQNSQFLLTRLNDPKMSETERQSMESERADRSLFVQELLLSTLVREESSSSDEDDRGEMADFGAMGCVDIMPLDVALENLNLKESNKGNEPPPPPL", "UniProt Q5T4S7": "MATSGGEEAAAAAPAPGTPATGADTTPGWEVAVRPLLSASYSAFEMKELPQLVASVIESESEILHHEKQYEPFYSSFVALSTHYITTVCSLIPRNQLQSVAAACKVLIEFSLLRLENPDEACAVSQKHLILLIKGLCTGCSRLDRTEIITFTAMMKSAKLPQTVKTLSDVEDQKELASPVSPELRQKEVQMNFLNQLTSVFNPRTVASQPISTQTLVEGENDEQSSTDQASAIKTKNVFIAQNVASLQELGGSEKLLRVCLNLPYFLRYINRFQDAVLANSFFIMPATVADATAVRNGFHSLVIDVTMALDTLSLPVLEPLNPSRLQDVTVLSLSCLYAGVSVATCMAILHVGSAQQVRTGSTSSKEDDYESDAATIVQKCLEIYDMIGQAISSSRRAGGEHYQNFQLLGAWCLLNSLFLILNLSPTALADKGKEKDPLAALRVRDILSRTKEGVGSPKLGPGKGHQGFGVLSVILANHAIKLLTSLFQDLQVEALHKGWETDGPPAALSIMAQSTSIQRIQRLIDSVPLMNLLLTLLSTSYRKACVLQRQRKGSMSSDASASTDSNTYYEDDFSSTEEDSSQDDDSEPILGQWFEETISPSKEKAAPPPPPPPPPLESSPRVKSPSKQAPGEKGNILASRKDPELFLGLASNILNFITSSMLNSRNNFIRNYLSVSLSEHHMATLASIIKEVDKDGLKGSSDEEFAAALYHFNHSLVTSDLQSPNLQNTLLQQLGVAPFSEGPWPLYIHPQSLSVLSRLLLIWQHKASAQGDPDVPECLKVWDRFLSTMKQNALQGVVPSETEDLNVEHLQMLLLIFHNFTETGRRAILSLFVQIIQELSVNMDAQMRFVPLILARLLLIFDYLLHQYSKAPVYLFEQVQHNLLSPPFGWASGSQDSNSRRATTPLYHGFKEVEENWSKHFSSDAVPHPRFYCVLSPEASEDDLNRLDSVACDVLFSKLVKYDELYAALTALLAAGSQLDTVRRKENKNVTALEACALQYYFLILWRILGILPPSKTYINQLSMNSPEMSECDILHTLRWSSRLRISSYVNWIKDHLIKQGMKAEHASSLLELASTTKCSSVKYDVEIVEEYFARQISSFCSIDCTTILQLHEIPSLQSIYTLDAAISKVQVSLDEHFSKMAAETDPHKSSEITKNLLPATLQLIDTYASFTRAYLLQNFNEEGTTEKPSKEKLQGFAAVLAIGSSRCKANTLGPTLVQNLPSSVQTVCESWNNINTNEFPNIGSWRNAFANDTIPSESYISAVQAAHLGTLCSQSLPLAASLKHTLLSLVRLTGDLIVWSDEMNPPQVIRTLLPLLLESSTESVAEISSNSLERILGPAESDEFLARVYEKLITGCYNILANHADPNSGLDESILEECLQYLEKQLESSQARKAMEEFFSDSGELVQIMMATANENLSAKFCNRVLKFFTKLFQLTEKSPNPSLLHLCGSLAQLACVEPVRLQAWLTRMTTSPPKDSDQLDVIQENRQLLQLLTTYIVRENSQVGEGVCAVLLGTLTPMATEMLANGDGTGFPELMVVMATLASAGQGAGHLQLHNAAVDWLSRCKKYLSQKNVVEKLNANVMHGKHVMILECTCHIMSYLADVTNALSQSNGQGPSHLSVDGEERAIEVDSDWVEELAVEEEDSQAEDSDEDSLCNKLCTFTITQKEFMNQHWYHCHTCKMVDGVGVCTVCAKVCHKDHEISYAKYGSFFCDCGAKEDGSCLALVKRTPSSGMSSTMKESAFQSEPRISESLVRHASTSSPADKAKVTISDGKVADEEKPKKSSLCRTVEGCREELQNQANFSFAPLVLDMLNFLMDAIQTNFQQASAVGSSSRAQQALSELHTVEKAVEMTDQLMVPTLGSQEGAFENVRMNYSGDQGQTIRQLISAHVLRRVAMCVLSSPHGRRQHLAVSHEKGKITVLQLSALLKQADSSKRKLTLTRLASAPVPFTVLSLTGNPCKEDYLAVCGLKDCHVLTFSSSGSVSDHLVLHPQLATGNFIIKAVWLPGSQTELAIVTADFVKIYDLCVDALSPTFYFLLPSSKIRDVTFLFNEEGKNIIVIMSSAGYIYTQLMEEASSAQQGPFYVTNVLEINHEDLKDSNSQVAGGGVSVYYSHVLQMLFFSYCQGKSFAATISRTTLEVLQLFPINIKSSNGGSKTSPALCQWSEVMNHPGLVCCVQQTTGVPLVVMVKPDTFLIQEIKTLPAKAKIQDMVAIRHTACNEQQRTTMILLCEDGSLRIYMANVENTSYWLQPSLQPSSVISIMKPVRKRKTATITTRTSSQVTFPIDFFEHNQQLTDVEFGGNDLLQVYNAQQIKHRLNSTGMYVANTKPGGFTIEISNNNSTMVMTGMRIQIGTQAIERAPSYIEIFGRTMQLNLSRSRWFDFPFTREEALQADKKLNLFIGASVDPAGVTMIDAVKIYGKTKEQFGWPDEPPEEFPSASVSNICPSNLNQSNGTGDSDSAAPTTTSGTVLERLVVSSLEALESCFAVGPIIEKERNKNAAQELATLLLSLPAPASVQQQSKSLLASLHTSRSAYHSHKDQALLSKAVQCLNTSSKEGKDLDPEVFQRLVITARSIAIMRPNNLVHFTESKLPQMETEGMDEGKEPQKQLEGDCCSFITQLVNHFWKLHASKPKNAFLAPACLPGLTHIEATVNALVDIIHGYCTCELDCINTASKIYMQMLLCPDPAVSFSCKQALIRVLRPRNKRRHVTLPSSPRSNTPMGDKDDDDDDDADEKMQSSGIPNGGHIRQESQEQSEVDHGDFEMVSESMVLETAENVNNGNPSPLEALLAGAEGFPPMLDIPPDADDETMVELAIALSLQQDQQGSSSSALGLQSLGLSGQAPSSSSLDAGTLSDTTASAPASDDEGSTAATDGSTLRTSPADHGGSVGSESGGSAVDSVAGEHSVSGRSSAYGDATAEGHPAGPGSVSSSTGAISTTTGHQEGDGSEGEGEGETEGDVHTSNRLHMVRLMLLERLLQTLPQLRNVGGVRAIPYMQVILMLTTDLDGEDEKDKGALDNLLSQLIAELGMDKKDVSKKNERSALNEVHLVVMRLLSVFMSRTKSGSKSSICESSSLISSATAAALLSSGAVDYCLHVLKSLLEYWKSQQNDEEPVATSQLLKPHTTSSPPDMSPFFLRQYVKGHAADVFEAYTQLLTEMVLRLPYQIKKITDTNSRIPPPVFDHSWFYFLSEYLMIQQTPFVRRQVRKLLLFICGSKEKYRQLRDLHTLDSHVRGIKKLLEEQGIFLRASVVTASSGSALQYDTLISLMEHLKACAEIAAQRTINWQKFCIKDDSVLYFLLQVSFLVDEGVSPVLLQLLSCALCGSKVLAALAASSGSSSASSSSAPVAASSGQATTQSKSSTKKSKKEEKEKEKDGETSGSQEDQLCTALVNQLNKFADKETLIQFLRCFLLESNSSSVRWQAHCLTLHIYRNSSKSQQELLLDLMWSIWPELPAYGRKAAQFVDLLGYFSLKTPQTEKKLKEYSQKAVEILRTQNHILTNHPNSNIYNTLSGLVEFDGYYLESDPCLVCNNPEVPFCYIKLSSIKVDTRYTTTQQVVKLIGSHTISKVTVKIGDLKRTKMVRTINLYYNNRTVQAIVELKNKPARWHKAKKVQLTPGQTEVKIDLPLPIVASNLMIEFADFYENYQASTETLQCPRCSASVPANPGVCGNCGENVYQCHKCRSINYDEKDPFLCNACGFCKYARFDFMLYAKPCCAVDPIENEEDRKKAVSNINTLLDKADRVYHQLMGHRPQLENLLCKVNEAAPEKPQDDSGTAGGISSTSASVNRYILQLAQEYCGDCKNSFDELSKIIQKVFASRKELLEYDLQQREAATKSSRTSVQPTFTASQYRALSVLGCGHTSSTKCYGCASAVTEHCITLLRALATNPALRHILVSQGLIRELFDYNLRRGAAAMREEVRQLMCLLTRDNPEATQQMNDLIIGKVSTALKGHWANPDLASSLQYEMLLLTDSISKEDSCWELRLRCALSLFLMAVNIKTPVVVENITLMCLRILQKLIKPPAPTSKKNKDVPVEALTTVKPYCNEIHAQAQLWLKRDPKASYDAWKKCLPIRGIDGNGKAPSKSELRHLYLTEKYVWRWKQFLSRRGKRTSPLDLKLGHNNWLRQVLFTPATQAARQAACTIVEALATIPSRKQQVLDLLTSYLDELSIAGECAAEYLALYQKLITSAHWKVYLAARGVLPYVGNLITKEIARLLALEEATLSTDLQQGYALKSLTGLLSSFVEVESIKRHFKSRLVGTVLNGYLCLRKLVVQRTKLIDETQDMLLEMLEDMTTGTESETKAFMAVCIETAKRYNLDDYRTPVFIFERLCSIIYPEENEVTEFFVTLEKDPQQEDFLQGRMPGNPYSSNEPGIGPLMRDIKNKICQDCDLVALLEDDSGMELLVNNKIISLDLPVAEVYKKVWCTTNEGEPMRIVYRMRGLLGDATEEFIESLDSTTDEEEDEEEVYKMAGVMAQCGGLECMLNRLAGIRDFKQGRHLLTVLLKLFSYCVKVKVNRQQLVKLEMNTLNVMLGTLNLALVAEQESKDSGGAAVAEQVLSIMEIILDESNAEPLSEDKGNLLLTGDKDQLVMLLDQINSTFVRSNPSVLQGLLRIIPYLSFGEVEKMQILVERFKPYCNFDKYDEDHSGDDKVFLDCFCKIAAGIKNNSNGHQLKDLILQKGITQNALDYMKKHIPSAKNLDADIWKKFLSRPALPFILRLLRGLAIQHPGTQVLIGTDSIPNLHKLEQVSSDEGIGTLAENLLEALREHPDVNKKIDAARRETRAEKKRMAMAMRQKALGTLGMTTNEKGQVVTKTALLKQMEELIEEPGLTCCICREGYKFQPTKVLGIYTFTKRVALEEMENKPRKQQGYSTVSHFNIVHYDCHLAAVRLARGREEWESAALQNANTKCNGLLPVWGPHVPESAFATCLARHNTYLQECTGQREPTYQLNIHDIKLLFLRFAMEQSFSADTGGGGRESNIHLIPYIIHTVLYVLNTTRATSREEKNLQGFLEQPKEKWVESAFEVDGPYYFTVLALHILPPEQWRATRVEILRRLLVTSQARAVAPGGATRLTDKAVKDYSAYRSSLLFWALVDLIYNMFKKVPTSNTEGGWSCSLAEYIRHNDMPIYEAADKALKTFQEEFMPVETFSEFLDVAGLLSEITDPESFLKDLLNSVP"}, "source": "paper PMC12022042", "note": "No constants are given. Whether binding was seen depends on the method and setting. In cells and extracts the contact can be indirect. A yes stands for co-enrichment or nearness to the bait. Other partners may have been found. For part of these data: A no says only that the protein was not detected with the bait.", "data": [{"target": "TurboID-TRIM52 fusion (human) (UniProt Q96A61)", "experiment": "proximity labelling; TurboID-TRIM52 against TurboID-EGFP control in RKO cells, Dox-induced; with 10 µM epoxomicin (Fig. 2a-b) or without proteasome inhibitor (Fig. 5d-e); 500 µM biotin for 15 min; biotinylated proteins enriched on streptavidin beads under denaturing conditions, nLC-MS/MS", "values": [{"molecule": "Tyrosyl-DNA Phosphodiesterase 2 (TDP2) (enzyme, UniProt O95551 1-362) MELGSCLEGGREAAEEEGEPEVKKRRLLCVEFASVASCDAAVAQCFLAENDWEMERALNSYFEPPVEESALERRPETISEPKTYVDLTNEETTDSTTSKISPSEDTQQENGSMFSLITWNIDGLDLNNLSERARGVCSYLALYSPDVIFLQEVIPPYYSYLKKRSSNYEIITGHEEGYFTAIMLKKSRVKLKSQEIIPFPSTKMMRNLLCVHVNVSGNELCLMTSHLESTRGHAAERMNQLKMVLKKMQEAPESATVIFAGDTNLRDREVTRCGGLPNNIVDVWEFLGKPKHCQYTWDTQMNSNLGITAACKLRFDRIFFRAAAEEGHIIPRSLDLLGLEKLDCGRFPSDHWGLLCNLDIIL", "binding": "binds"}, {"molecule": "Zinc Finger Protein 451 (ZNF451) (enzyme, UniProt Q9Y4E5 1-1061) MGDPGSEIIESVPPAGPEASESTTDENEDDIQFVSEGPLRPVLEYIDLVSSDDEEPSTSYTDENIKRKDHIDYQKDKVALTLARLARHVEVEKQQKEEKNRAFREKIDFQHAHGLQELEFIRGHSDTEAARLCVDQWLKMPGLKTGTINCGTKSSFRRGGHTWVSGKPILCPIMHCNKEFDNGHLLLGHLKRFDHSPCDPTITLHGPFFSSFACVVCYKKFVTQQQYRDHLFDKEATDDGHNNNLLPQIIQCFACPNCFLLFSRKEECSKHMSGKNHFHQSFKLGDNKGIAHPISFPSFAKKLLISLCKDVPFQVKCVACHKTLRSHMELTAHFRVHCRNAGPVAVAEKSITQVAEKFILRGYCPDCNQVFVDETSTQNHKQNSGHKVRVINSVEESVLLYCHSSEGNKDPSSDLHLLLDQSKFSSLKRTMSIKESSSLECIAIPKKKMNLKDKSHEGVACVQKEKSVVKTWFCECNQRFPSEDAVEKHVFSANTMGYKCVVCGKVCDDSGVIRLHMSRIHGGAHLNNFLFWCRTCKKELTRKDTIMAHVTEFHNGHRYFYEMDEVEGETLPSSSTTLDNLTANKPSSAITVIDHSPANSSPRGKWQCRICEDMFDSQEYVKQHCMSLASHKFHRYSCAHCRKPFHKIETLYRHCQDEHDNEIKIKYFCGLCDLIFNVEEAFLSHYEEHHSIDYVFVSEKTETSIKTEDDFPVIETSNQLTCGCRESYICKVNRKEDYSRCLQIMLDKGKLWFRCSLCSATAQNLTDMNTHIHQVHKEKSDEEEQQYVIKCGTCTKAFHDPESAQQHFHRKHCFLQKPSVAHFGSEKSNLYKFTASASHTERKLKQAINYSKSLDMEKGVENDLSYQNIEEEIVELPDLDYLRTMTHIVFVDFDNWSNFFGHLPGHLNQGTFIWGFQGGNTNWKPPLNCKIYNYLNRIGCFFLHPRCSKRKDAADFAICMHAGRLDEQLPKQIPFTILSGDQGFLELENQFKKTQRPAHILNPHHLEGDMMCALLNSISDTTKECDSDDNMGAKNTSIGEEFISTEDVELEEAIRRSLEEM", "binding": "binds"}]}, {"target": "TurboID-TRIM52 fusion (human) (UniProt Q96A61)", "experiment": "proximity labelling; TurboID-TRIM52 against TurboID-EGFP control in RKO cells, Dox-induced; with 10 µM epoxomicin (Fig. 2a-b) or without proteasome inhibitor (Fig. 5d-e); 500 µM biotin for 15 min; biotinylated proteins enriched on streptavidin beads under denaturing conditions, nLC-MS/MS", "remark": "another data set of the same source", "values": [{"molecule": "BIRC6 (endogenous) (from UniProt Q9NR09 1-4857) (enzyme)", "binding": "binds"}, {"molecule": "HUWE1 (endogenous) (from UniProt Q7Z6Z7 1-4374) (enzyme)", "binding": "binds"}, {"molecule": "KCMF1 (endogenous) (from UniProt Q9P0J7 1-381)", "binding": "no binding"}, {"molecule": "UBR4 (endogenous) (from UniProt Q5T4S7 1-5183) (enzyme)", "binding": "no binding"}]}]}
